PubChem BioAssay AID1159578 | Peter MacCallum Cancer Centre | 2015

- Purpose: 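Knock-downs that alter how fast lymphatic endothelial cells migrate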 (primary screen)
- Cells: human lymphatic endothelial cells
- Reagents: siRNA pool against human genes, 40 nM
- Duration: 48 h after transfection
- Read-out: 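Cells stained with dye and imaged after a scratch; covered wound area and nuclei counted, duplicates averaged, migration set against mock wells and turned into a robust z-score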
- Direction: migration robust z-score: higher = faster migration into the scratch; nuclei per well: higher = more cells in the well
- Active means: 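Pools averaging fewer than 3300 nuclei are never called; remaining pools count as changed when migration robust z lies outside -2 to 2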
- Calls: active = migration changed; inactive = no migration change, or too few cells
The deposit covers about 18,000 reagents; this is a random part of them. About 1,030 of them (5.7%) count as active. 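Inactive calls also include pools with fewer than 3300 nuclei, whose migration was not assessed.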 The raw values are shown without normalisation. Not all columns of the deposit are shown. Reagent sequences are not shown.

NECAB2 (N-terminal EF-hand calcium binding protein 2) showed migration robust z-score 0.14; migration class with cell-count check migration z between -2 and 2; enough cells; nuclei per well, duplicate mean 5738; inactive.
Silencing of NUP54 (nucleoporin 54) came out at: migration robust z-score 0.38; migration class with cell-count check migration z between -2 and 2; enough cells; nuclei per well, duplicate mean 6786; inactive.
Against HJV (hemojuvelin BMP co-receptor) the deposit lists migration robust z-score 0.46; migration class with cell-count check migration z between -2 and 2; enough cells; nuclei per well, duplicate mean 5820; inactive.
With knock-down of RPUSD2 (RNA pseudouridine synthase domain containing 2), the record shows migration robust z-score -0.68; migration class with cell-count check migration z between -2 and 2; enough cells; nuclei per well, duplicate mean 7024; inactive.
SGK2 (serum/glucocorticoid regulated kinase 2) gave migration robust z-score -0.42; migration class with cell-count check migration z between -2 and 2; enough cells; nuclei per well, duplicate mean 5400; inactive.
Knock-down of GNPTAB gave: migration robust z-score -0.45; migration class with cell-count check migration z between -2 and 2; enough cells; nuclei per well, duplicate mean 6106; inactive.
Against SLC16A9, the values are migration robust z-score 2.82; migration class with cell-count check migration z above 2; enough cells; nuclei per well, duplicate mean 7654; active.
HTR3D (5-hydroxytryptamine receptor 3D) gave migration robust z-score -1.04; migration class with cell-count check migration z between -2 and 2; enough cells; nuclei per well, duplicate mean 5550; inactive.
With knock-down of SIGLEC1 (sialic acid binding Ig like lectin 1), the record shows migration robust z-score 1.04; migration class with cell-count check migration z between -2 and 2; enough cells; nuclei per well, duplicate mean 6324; inactive.
After knock-down of USP28 (ubiquitin specific peptidase 28), the record shows migration robust z-score 0.86; migration class with cell-count check migration z between -2 and 2; enough cells; nuclei per well, duplicate mean 5378; inactive.
Depletion of MYT1 (myelin transcription factor 1) resulted in: migration robust z-score 0.52; migration class with cell-count check migration z between -2 and 2; enough cells; nuclei per well, duplicate mean 3968; inactive.
Depletion of CCNJL (cyclin J like) came out at: migration robust z-score 0.54; migration class with cell-count check migration z between -2 and 2; enough cells; nuclei per well, duplicate mean 6429; inactive.
After knock-down of FAM169BP (family with sequence similarity 169 member B, pseudogene), the record shows migration robust z-score 1.06; migration class with cell-count check migration z between -2 and 2; enough cells; nuclei per well, duplicate mean 6017; inactive.
With knock-down of ZBTB35 (zinc finger and BTB domain containing 35), the screen gave migration robust z-score 0.46; migration class with cell-count check migration z between -2 and 2; enough cells; nuclei per well, duplicate mean 4815; inactive.

Records listed so far whose target name begins with H or h (2):
HJV (hemojuvelin BMP co-receptor) → migration robust z-score: 0.46; migration class with cell-count check: migration z between -2 and 2; enough cells; nuclei per well, duplicate mean: 5820; call: inactive
HTR3D (5-hydroxytryptamine receptor 3D) → migration robust z-score: -1.04; migration class with cell-count check: migration z between -2 and 2; enough cells; nuclei per well, duplicate mean: 5550; call: inactive
